According to publication PMC8384837:
The list shows a part of the results. For some assays here: At the low end of the ranking the order means little. For some assays here: The exact form of the protein is not confirmed.

These sequences were tested against T1, PUM1 PUF domain R3-THE R4-TFR R7-NPG C935T + R936H + Q939E + N971T + H972F + Q975R + S1079N + N1080P + E1083G (UniProt Q14671). Details: yeast three-hybrid, YBZ-1, SC-Leu-His + 0.5 mM 3-AT, 4 days.
T1 sequence: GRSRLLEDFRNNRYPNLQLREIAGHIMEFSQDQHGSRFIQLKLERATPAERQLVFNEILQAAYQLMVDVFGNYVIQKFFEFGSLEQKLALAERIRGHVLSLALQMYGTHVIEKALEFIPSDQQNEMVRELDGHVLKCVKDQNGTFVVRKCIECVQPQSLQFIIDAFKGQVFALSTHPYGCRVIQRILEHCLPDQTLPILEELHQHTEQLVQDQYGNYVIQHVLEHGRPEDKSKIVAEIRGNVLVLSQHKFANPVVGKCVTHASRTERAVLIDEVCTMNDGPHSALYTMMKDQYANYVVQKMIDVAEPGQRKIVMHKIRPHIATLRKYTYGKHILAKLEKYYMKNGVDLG

Sequence	binding signal (log2 enrichment (interaction score))
GGCUAGAACUAGUGGAUCCCCCGGCGCCCGGCGGCUCGAGCCCGGGUAAGAUGAAGAUGUCUGCAUGCCGCCGGGCGCCAUGCCUGCAGGUCGACUCUAGAAAACAUG	< -2.34
GGCUAGAACUAGUGGAUCCCCCGGCGCCCGGCGGCUCGAGCCCGGGUAAGUUGAAAGAGUCUGCAUGCCGCCGGGCGCCAUGCCUGCAGGUCGACUCUAGAAAACAUG	-2.12
GGCUAGAACUAGUGGAUCCCCCGGCGCCCGGCGGCUCGAGCCCGGGUAAGUUGGAGAAGUCUGCAUGCCGCCGGGCGCCAUGCCUGCAGGUCGACUCUAGAAAACAUG	-2.3
GGCUAGAACUAGUGGAUCCCCCGGCGCCCGGCGGCUCGAGCCCGGGUAAGUUAGAAUAGUCUGCAUGCCGCCGGGCGCCAUGCCUGCAGGUCGACUCUAGAAAACAUG	-2.58
GGCUAGAACUAGUGGAUCCCCCGGCGCCCGGCGGCUCGAGCCCGGGUAAGUCUACGCCGUCUGCAUGCCGCCGGGCGCCAUGCCUGCAGGUCGACUCUAGAAAACAUG	-2.22
GGCUAGAACUAGUGGAUCCCCCGGCGCCCGGCGGCUCGAGCCCGGGUAAGUAGCCCCCGUCUGCAUGCCGCCGGGCGCCAUGCCUGCAGGUCGACUCUAGAAAACAUG	-2.8
GGCUAGAACUAGUGGAUCCCCCGGCGCCCGGCGGCUCGAGCCCGGGUAAGUUUCAAUGGUCUGCAUGCCGCCGGGCGCCAUGCCUGCAGGUCGACUCUAGAAAACAUG	< -3.04

The sequences below were run against T2, PUM1 PUF domain R5-PHQ R6-SWD C1007P + R1008H + N1043S + Y1044W + Q1047D (UniProt Q14671). Details: yeast three-hybrid, YBZ-1, SC-Leu-His + 0.5 mM 3-AT, 4 days.
T2 sequence: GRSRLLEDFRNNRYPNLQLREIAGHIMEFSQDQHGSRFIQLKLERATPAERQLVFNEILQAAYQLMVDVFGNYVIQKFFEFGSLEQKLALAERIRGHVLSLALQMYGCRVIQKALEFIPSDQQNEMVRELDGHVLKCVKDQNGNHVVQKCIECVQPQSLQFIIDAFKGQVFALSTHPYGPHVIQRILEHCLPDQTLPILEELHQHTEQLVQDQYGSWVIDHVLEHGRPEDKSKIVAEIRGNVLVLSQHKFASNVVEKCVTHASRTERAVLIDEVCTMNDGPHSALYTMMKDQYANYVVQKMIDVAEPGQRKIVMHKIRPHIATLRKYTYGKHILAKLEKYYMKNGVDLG

Sequence	binding signal (log2 enrichment (interaction score))
GGCUAGAACUAGUGGAUCCCCCGGCGCCCGGCGGCUCGAGCCCGGGUAAGAUGAAGAUGUCUGCAUGCCGCCGGGCGCCAUGCCUGCAGGUCGACUCUAGAAAACAUG	< -7.2
GGCUAGAACUAGUGGAUCCCCCGGCGCCCGGCGGCUCGAGCCCGGGUAAGUUGUAAUAGUCUGCAUGCCGCCGGGCGCCAUGCCUGCAGGUCGACUCUAGAAAACAUG	< -7.16
GGCUAGAACUAGUGGAUCCCCCGGCGCCCGGCGGCUCGAGCCCGGGUAAGUGUAGGUUGUCUGCAUGCCGCCGGGCGCCAUGCCUGCAGGUCGACUCUAGAAAACAUG	-7.07
GGCUAGAACUAGUGGAUCCCCCGGCGCCCGGCGGCUCGAGCCCGGGUAAGUAGAAACAGUCUGCAUGCCGCCGGGCGCCAUGCCUGCAGGUCGACUCUAGAAAACAUG	-7.59
GGCUAGAACUAGUGGAUCCCCCGGCGCCCGGCGGCUCGAGCCCGGGUAAGUCUAAUUAGUCUGCAUGCCGCCGGGCGCCAUGCCUGCAGGUCGACUCUAGAAAACAUG	< -7.63
GGCUAGAACUAGUGGAUCCCCCGGCGCCCGGCGGCUCGAGCCCGGGUAAGUUGAAAGAGUCUGCAUGCCGCCGGGCGCCAUGCCUGCAGGUCGACUCUAGAAAACAUG	-7.33
GGCUAGAACUAGUGGAUCCCCCGGCGCCCGGCGGCUCGAGCCCGGGUAAGAUAGAGUAGUCUGCAUGCCGCCGGGCGCCAUGCCUGCAGGUCGACUCUAGAAAACAUG	-8.4
GGCUAGAACUAGUGGAUCCCCCGGCGCCCGGCGGCUCGAGCCCGGGUAAGUUGUACUUGUCUGCAUGCCGCCGGGCGCCAUGCCUGCAGGUCGACUCUAGAAAACAUG	-7.74
GGCUAGAACUAGUGGAUCCCCCGGCGCCCGGCGGCUCGAGCCCGGGUAAGUUGGAGAAGUCUGCAUGCCGCCGGGCGCCAUGCCUGCAGGUCGACUCUAGAAAACAUG	-6.83
GGCUAGAACUAGUGGAUCCCCCGGCGCCCGGCGGCUCGAGCCCGGGUAAGUUUAUGUAGUCUGCAUGCCGCCGGGCGCCAUGCCUGCAGGUCGACUCUAGAAAACAUG	< -7.77
GGCUAGAACUAGUGGAUCCCCCGGCGCCCGGCGGCUCGAGCCCGGGUAAGCCGAUAUCGUCUGCAUGCCGCCGGGCGCCAUGCCUGCAGGUCGACUCUAGAAAACAUG	< -7.19
GGCUAGAACUAGUGGAUCCCCCGGCGCCCGGCGGCUCGAGCCCGGGUAAGGUGAAACUGUCUGCAUGCCGCCGGGCGCCAUGCCUGCAGGUCGACUCUAGAAAACAUG	-6.94
GGCUAGAACUAGUGGAUCCCCCGGCGCCCGGCGGCUCGAGCCCGGGUAAGUUUAAAUUGUCUGCAUGCCGCCGGGCGCCAUGCCUGCAGGUCGACUCUAGAAAACAUG	< -7.73
GGCUAGAACUAGUGGAUCCCCCGGCGCCCGGCGGCUCGAGCCCGGGUAAGCUGAAAUUGUCUGCAUGCCGCCGGGCGCCAUGCCUGCAGGUCGACUCUAGAAAACAUG	-6.8
GGCUAGAACUAGUGGAUCCCCCGGCGCCCGGCGGCUCGAGCCCGGGUAAGUGGAACACGUCUGCAUGCCGCCGGGCGCCAUGCCUGCAGGUCGACUCUAGAAAACAUG	-7.26
GGCUAGAACUAGUGGAUCCCCCGGCGCCCGGCGGCUCGAGCCCGGGUAAGUAUAAACCGUCUGCAUGCCGCCGGGCGCCAUGCCUGCAGGUCGACUCUAGAAAACAUG	-6.57
GGCUAGAACUAGUGGAUCCCCCGGCGCCCGGCGGCUCGAGCCCGGGUAAGGGUAAGUGGUCUGCAUGCCGCCGGGCGCCAUGCCUGCAGGUCGACUCUAGAAAACAUG	-7.54
GGCUAGAACUAGUGGAUCCCCCGGCGCCCGGCGGCUCGAGCCCGGGUAAGUGUUAAGAGUCUGCAUGCCGCCGGGCGCCAUGCCUGCAGGUCGACUCUAGAAAACAUG	-7.59
GGCUAGAACUAGUGGAUCCCCCGGCGCCCGGCGGCUCGAGCCCGGGUAAGUUGUCACAGUCUGCAUGCCGCCGGGCGCCAUGCCUGCAGGUCGACUCUAGAAAACAUG	< -7.91

Sequence	binding signal (log2 enrichment (interaction score))
GGCUAGAACUAGUGGAUCCCCCGGCGCCCGGCGGCUCGAGCCCGGGUAAGUUAGAAUAGUCUGCAUGCCGCCGGGCGCCAUGCCUGCAGGUCGACUCUAGAAAACAUG	< -6.85
GGCUAGAACUAGUGGAUCCCCCGGCGCCCGGCGGCUCGAGCCCGGGUAAGUUGACGGAGUCUGCAUGCCGCCGGGCGCCAUGCCUGCAGGUCGACUCUAGAAAACAUG	-7.73
GGCUAGAACUAGUGGAUCCCCCGGCGCCCGGCGGCUCGAGCCCGGGUAAGUUGGAAAAGUCUGCAUGCCGCCGGGCGCCAUGCCUGCAGGUCGACUCUAGAAAACAUG	-5.26
GGCUAGAACUAGUGGAUCCCCCGGCGCCCGGCGGCUCGAGCCCGGGUAAGUUGAGAUGGUCUGCAUGCCGCCGGGCGCCAUGCCUGCAGGUCGACUCUAGAAAACAUG	< -7.95
GGCUAGAACUAGUGGAUCCCCCGGCGCCCGGCGGCUCGAGCCCGGGUAAGUUUAAAGCGUCUGCAUGCCGCCGGGCGCCAUGCCUGCAGGUCGACUCUAGAAAACAUG	< -8.41
GGCUAGAACUAGUGGAUCCCCCGGCGCCCGGCGGCUCGAGCCCGGGUAAGAUGAAAAAGUCUGCAUGCCGCCGGGCGCCAUGCCUGCAGGUCGACUCUAGAAAACAUG	< -7.77
GGCUAGAACUAGUGGAUCCCCCGGCGCCCGGCGGCUCGAGCCCGGGUAAGUCGACAUAGUCUGCAUGCCGCCGGGCGCCAUGCCUGCAGGUCGACUCUAGAAAACAUG	-6.82
GGCUAGAACUAGUGGAUCCCCCGGCGCCCGGCGGCUCGAGCCCGGGUAAGCUGGAAUAGUCUGCAUGCCGCCGGGCGCCAUGCCUGCAGGUCGACUCUAGAAAACAUG	< -7.95
GGCUAGAACUAGUGGAUCCCCCGGCGCCCGGCGGCUCGAGCCCGGGUAAGAAUAAGGAGUCUGCAUGCCGCCGGGCGCCAUGCCUGCAGGUCGACUCUAGAAAACAUG	-7.5
GGCUAGAACUAGUGGAUCCCCCGGCGCCCGGCGGCUCGAGCCCGGGUAAGGUUAAAUAGUCUGCAUGCCGCCGGGCGCCAUGCCUGCAGGUCGACUCUAGAAAACAUG	-8.62
GGCUAGAACUAGUGGAUCCCCCGGCGCCCGGCGGCUCGAGCCCGGGUAAGUACAGAUAGUCUGCAUGCCGCCGGGCGCCAUGCCUGCAGGUCGACUCUAGAAAACAUG	< -8.09
GGCUAGAACUAGUGGAUCCCCCGGCGCCCGGCGGCUCGAGCCCGGGUAAGUUGCAAACGUCUGCAUGCCGCCGGGCGCCAUGCCUGCAGGUCGACUCUAGAAAACAUG	< -7.54
GGCUAGAACUAGUGGAUCCCCCGGCGCCCGGCGGCUCGAGCCCGGGUAAGCGGAAGUAGUCUGCAUGCCGCCGGGCGCCAUGCCUGCAGGUCGACUCUAGAAAACAUG	< -7.1
GGCUAGAACUAGUGGAUCCCCCGGCGCCCGGCGGCUCGAGCCCGGGUAAGUUGACAUCGUCUGCAUGCCGCCGGGCGCCAUGCCUGCAGGUCGACUCUAGAAAACAUG	-7.77
GGCUAGAACUAGUGGAUCCCCCGGCGCCCGGCGGCUCGAGCCCGGGUAAGUUGAGAAAGUCUGCAUGCCGCCGGGCGCCAUGCCUGCAGGUCGACUCUAGAAAACAUG	-7.52
GGCUAGAACUAGUGGAUCCCCCGGCGCCCGGCGGCUCGAGCCCGGGUAAGAAGACAACGUCUGCAUGCCGCCGGGCGCCAUGCCUGCAGGUCGACUCUAGAAAACAUG	< -7.3
GGCUAGAACUAGUGGAUCCCCCGGCGCCCGGCGGCUCGAGCCCGGGUAAGUUUCAAUGGUCUGCAUGCCGCCGGGCGCCAUGCCUGCAGGUCGACUCUAGAAAACAUG	-8.16
GGCUAGAACUAGUGGAUCCCCCGGCGCCCGGCGGCUCGAGCCCGGGUAAGUUGUAAAAGUCUGCAUGCCGCCGGGCGCCAUGCCUGCAGGUCGACUCUAGAAAACAUG	-7.98
